{"source": "PubChem BioAssay AID720710 (VTT Finland, 2013)", "screen": "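Knock-downs that leave cyclin E-high cells sensitive to replication stress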 (primary screen)", "cell system": "human U-2 OS bone cancer cells, parental and a cyclin E (CCNE1) overexpressing line", "knock-down reagent": "single siRNA against human genes, 1 µM siRNA in the printed spot mix", "time to read-out": "67 h", "challenge": "half the arrays: hydroxyurea 2 mM for 16 h, then 3 h recovery; other arrays untreated", "measured": "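EdU click signal imaged per DAPI-stained nucleus at 67 h; each spot divided by its subgrid median, then z-scored relative to non-targeting control spots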", "reading the numbers": "EdU z-score, cyclin E line, hydroxyurea and EdU z-score, parental, hydroxyurea: higher = more DNA synthesis than non-targeting controls", "note": "The whole screen tested about 1,380 reagents; this is a random part of them. 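One array per condition without replicates; hydroxyurea arrays received 2 mM for 16 h plus 3 h recovery.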 Further read-outs or replicates are left out here. Reagent sequences are not shown."}
{"gene": "TYMS (GeneID 7298)", "PubChem SID": "SID164222942", "EdU z-score, cyclin E line, hydroxyurea": 0.714, "EdU z-score, parental, hydroxyurea": -1.64}
{"gene": "TYMS (GeneID 7298)", "PubChem SID": "SID164222943", "EdU z-score, cyclin E line, hydroxyurea": 1.1, "EdU z-score, parental, hydroxyurea": 0.802}
{"gene": "XRCC6 (GeneID 2547)", "PubChem SID": "SID164223006", "EdU z-score, cyclin E line, hydroxyurea": -2.06, "EdU z-score, parental, hydroxyurea": -4.72}
{"gene": "XRCC6 (GeneID 2547)", "PubChem SID": "SID164223007", "EdU z-score, cyclin E line, hydroxyurea": -0.287, "EdU z-score, parental, hydroxyurea": -0.626}
{"gene": "LOC730313", "PubChem SID": "SID164222250", "EdU z-score, cyclin E line, hydroxyurea": -0.296, "EdU z-score, parental, hydroxyurea": 1.43}
{"gene": "LOC730313", "PubChem SID": "SID164222251", "EdU z-score, cyclin E line, hydroxyurea": 0.259, "EdU z-score, parental, hydroxyurea": 1.51}
{"gene": "EMSY (GeneID 56946)", "PubChem SID": "SID164221742", "EdU z-score, cyclin E line, hydroxyurea": -1.28, "EdU z-score, parental, hydroxyurea": -2.39}
{"gene": "EMSY (GeneID 56946)", "PubChem SID": "SID164221743", "EdU z-score, cyclin E line, hydroxyurea": -0.377, "EdU z-score, parental, hydroxyurea": -0.238}
{"gene": "TRIM32 (GeneID 22954)", "PubChem SID": "SID164222934", "EdU z-score, cyclin E line, hydroxyurea": 0.0655, "EdU z-score, parental, hydroxyurea": -1.26}
{"gene": "TRIM32 (GeneID 22954)", "PubChem SID": "SID164222935", "EdU z-score, cyclin E line, hydroxyurea": 0.494, "EdU z-score, parental, hydroxyurea": 3.68}
{"gene": "SMARCA2 (GeneID 6595)", "PubChem SID": "SID164222772", "EdU z-score, cyclin E line, hydroxyurea": -0.554, "EdU z-score, parental, hydroxyurea": -1.31}
{"gene": "SMARCA2 (GeneID 6595)", "PubChem SID": "SID164222773", "EdU z-score, cyclin E line, hydroxyurea": 0.855, "EdU z-score, parental, hydroxyurea": 0.605}
{"gene": "RFC1 (GeneID 5981)", "PubChem SID": "SID164222644", "EdU z-score, cyclin E line, hydroxyurea": 0.609, "EdU z-score, parental, hydroxyurea": -2.93}
{"gene": "RFC1 (GeneID 5981)", "PubChem SID": "SID164222645", "EdU z-score, cyclin E line, hydroxyurea": 2.67, "EdU z-score, parental, hydroxyurea": 3.6}
{"gene": "CREBBP (GeneID 1387)", "PubChem SID": "SID164221850", "EdU z-score, cyclin E line, hydroxyurea": 0.108, "EdU z-score, parental, hydroxyurea": 0.675}
{"gene": "CREBBP (GeneID 1387)", "PubChem SID": "SID164221851", "EdU z-score, cyclin E line, hydroxyurea": 2.23, "EdU z-score, parental, hydroxyurea": 1}
{"gene": "RNF2 (GeneID 6045)", "PubChem SID": "SID164222672", "EdU z-score, cyclin E line, hydroxyurea": -0.0135, "EdU z-score, parental, hydroxyurea": -2.28}
{"gene": "RNF2 (GeneID 6045)", "PubChem SID": "SID164222673", "EdU z-score, cyclin E line, hydroxyurea": 3.05, "EdU z-score, parental, hydroxyurea": 1.95}
{"gene": "CRY2 (GeneID 1408)", "PubChem SID": "SID164221854", "EdU z-score, cyclin E line, hydroxyurea": -0.374, "EdU z-score, parental, hydroxyurea": -1.3}
{"gene": "CRY2 (GeneID 1408)", "PubChem SID": "SID164221855", "EdU z-score, cyclin E line, hydroxyurea": -0.0468, "EdU z-score, parental, hydroxyurea": -0.685}

Continued (2 carried over from the part before).
{"gene": "CRY2 (GeneID 1408)", "PubChem SID": "SID164221854", "EdU z-score, cyclin E line, hydroxyurea": -0.374, "EdU z-score, parental, hydroxyurea": -1.3}
{"gene": "CRY2 (GeneID 1408)", "PubChem SID": "SID164221855", "EdU z-score, cyclin E line, hydroxyurea": -0.0468, "EdU z-score, parental, hydroxyurea": -0.685}
{"gene": "CDK2AP1 (GeneID 8099)", "PubChem SID": "SID164221804", "EdU z-score, cyclin E line, hydroxyurea": -0.94, "EdU z-score, parental, hydroxyurea": -1.12}
{"gene": "CDK2AP1 (GeneID 8099)", "PubChem SID": "SID164221805", "EdU z-score, cyclin E line, hydroxyurea": 2.24, "EdU z-score, parental, hydroxyurea": 1.02}
{"gene": "RNF149 (GeneID 284996)", "PubChem SID": "SID164222670", "EdU z-score, cyclin E line, hydroxyurea": -0.284, "EdU z-score, parental, hydroxyurea": 0.994}
{"gene": "RNF149 (GeneID 284996)", "PubChem SID": "SID164222671", "EdU z-score, cyclin E line, hydroxyurea": -0.00263, "EdU z-score, parental, hydroxyurea": 5.03}
{"gene": "TOP2B (GeneID 7155)", "PubChem SID": "SID164222908", "EdU z-score, cyclin E line, hydroxyurea": 0.137, "EdU z-score, parental, hydroxyurea": -0.52}
{"gene": "TOP2B (GeneID 7155)", "PubChem SID": "SID164222909", "EdU z-score, cyclin E line, hydroxyurea": 0.146, "EdU z-score, parental, hydroxyurea": 2.62}
{"gene": "LIN9 (GeneID 286826)", "PubChem SID": "SID164222210", "EdU z-score, cyclin E line, hydroxyurea": -0.784, "EdU z-score, parental, hydroxyurea": -2.41}
{"gene": "LIN9 (GeneID 286826)", "PubChem SID": "SID164222211", "EdU z-score, cyclin E line, hydroxyurea": 0.524, "EdU z-score, parental, hydroxyurea": 2.76}
{"gene": "RRM2 (GeneID 6241)", "PubChem SID": "SID164222700", "EdU z-score, cyclin E line, hydroxyurea": 0.0824, "EdU z-score, parental, hydroxyurea": -0.138}
{"gene": "RRM2 (GeneID 6241)", "PubChem SID": "SID164222701", "EdU z-score, cyclin E line, hydroxyurea": 0.683, "EdU z-score, parental, hydroxyurea": 0.518}
{"gene": "UBE2N (GeneID 7334)", "PubChem SID": "SID164222954", "EdU z-score, cyclin E line, hydroxyurea": 0.126, "EdU z-score, parental, hydroxyurea": 2.2}
{"gene": "UBE2N (GeneID 7334)", "PubChem SID": "SID164222955", "EdU z-score, cyclin E line, hydroxyurea": 0.468, "EdU z-score, parental, hydroxyurea": 3.36}
{"gene": "POLD3 (GeneID 10714)", "PubChem SID": "SID164222504", "EdU z-score, cyclin E line, hydroxyurea": -1.49, "EdU z-score, parental, hydroxyurea": 0.166}
{"gene": "POLD3 (GeneID 10714)", "PubChem SID": "SID164222505", "EdU z-score, cyclin E line, hydroxyurea": -0.228, "EdU z-score, parental, hydroxyurea": 0.564}
{"gene": "ESCO2 (GeneID 157570)", "PubChem SID": "SID164221946", "EdU z-score, cyclin E line, hydroxyurea": -0.995, "EdU z-score, parental, hydroxyurea": -0.699}
{"gene": "ESCO2 (GeneID 157570)", "PubChem SID": "SID164221947", "EdU z-score, cyclin E line, hydroxyurea": 0.816, "EdU z-score, parental, hydroxyurea": -0.484}
{"gene": "ELN (GeneID 2006)", "PubChem SID": "SID164221920", "EdU z-score, cyclin E line, hydroxyurea": -0.876, "EdU z-score, parental, hydroxyurea": 0.206}
{"gene": "ELN (GeneID 2006)", "PubChem SID": "SID164221921", "EdU z-score, cyclin E line, hydroxyurea": 0.665, "EdU z-score, parental, hydroxyurea": 2.43}
{"gene": "ZNF319 (GeneID 57567)", "PubChem SID": "SID164223018", "EdU z-score, cyclin E line, hydroxyurea": -0.386, "EdU z-score, parental, hydroxyurea": -0.757}
{"gene": "ZNF319 (GeneID 57567)", "PubChem SID": "SID164223019", "EdU z-score, cyclin E line, hydroxyurea": 0.184, "EdU z-score, parental, hydroxyurea": 1.6}
